The values below come from paper PMC7491322.

Data set [1] concerns Lsm1-7 (Schizosaccharomyces pombe). Description: fluorescence polarization. Particulars: FP: 100 mM NaCl, 20 mM Tris pH 8.2 (final ~8), 10 mM MgCl2, 1 mM TCEP, 1 mM Na azide, 0.1 mg/mL each tRNA, BSA and heparin; temperature not stated; 1 nM RNA final; recombinant protein; label: 5'-FAM.
Data set [2] relates to Lsm1Δ56C-7 (Schizosaccharomyces pombe). Description: fluorescence polarization. Particulars: FP: 100 mM NaCl, 20 mM Tris pH 8.2 (final ~8), 10 mM MgCl2, 1 mM TCEP, 1 mM Na azide, 0.1 mg/mL each tRNA, BSA and heparin; temperature not stated; 1 nM RNA final; recombinant protein; protein details: as P2; label: 5'-FAM. (In fluorescence polarisation assays a small probe gives low polarisation when free and higher when bound to something large.)

The exact form of at least one protein or probe is not confirmed. For some of these results: The comparison behind a weaker result is the experiment's own reference, which may not be listed here. At least one verdict rests on a figure or table, not on a statement of the authors.

For the sequence ACCCAUUUUU, the binding result in data set [1] is on record as “binds more weakly”. As for UUUUUUUUUUUUUAA [U13AA], in data set [2], the binding result was “binds”. For UUUUUUUUUUUUUUA [U14A], in data set [2], the binding result was “binds”. Consider UUUUUUUUUUUUUUU [U15], for which the binding result in data set [2] was “binds”.
